Measured values taken from PMC4186791.
No constants are given. Whether binding was seen depends on the method and setting. Some binding calls cover weakened binding; strength is not graded here.

By UniProt entry, the sequences of proteins in these tests, tags left out. Where a name states a change or a piece, a line headed by the entry shows the natural chain unless it says otherwise. Chains listed by the source or under a name are the forms on record and can include a tag or linker.
UniProt P83949: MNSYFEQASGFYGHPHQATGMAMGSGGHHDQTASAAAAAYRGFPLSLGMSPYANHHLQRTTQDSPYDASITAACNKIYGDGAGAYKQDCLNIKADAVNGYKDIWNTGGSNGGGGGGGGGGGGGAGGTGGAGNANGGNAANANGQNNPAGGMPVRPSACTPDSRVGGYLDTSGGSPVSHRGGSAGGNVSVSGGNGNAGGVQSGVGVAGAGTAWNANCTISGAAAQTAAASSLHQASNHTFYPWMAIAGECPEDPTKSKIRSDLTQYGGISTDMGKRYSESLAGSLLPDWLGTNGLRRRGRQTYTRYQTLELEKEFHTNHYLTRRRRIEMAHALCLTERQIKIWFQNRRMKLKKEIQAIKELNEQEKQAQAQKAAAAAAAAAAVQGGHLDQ
UbxIb Δ103–216 (P83949, form named): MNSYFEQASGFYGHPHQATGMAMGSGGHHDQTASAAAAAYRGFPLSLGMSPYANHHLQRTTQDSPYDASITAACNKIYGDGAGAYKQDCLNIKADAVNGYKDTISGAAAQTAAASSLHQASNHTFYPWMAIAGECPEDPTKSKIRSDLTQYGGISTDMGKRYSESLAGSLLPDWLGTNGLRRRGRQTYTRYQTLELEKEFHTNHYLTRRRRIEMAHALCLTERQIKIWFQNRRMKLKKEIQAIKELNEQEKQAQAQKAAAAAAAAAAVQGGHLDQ
UbxIb Pro4 (P83949, form named): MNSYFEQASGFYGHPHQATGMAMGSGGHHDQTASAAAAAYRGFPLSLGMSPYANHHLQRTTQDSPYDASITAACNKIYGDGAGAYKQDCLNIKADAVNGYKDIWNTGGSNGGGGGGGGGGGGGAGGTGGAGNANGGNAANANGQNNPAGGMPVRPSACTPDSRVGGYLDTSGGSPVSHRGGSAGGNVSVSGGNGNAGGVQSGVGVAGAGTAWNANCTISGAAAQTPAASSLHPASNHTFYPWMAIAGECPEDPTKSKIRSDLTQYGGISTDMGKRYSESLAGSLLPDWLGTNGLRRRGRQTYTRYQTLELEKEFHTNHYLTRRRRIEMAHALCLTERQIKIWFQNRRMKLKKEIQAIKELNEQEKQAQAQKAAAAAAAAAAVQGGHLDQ
UbxIb N103 Pro4 (P83949, form named): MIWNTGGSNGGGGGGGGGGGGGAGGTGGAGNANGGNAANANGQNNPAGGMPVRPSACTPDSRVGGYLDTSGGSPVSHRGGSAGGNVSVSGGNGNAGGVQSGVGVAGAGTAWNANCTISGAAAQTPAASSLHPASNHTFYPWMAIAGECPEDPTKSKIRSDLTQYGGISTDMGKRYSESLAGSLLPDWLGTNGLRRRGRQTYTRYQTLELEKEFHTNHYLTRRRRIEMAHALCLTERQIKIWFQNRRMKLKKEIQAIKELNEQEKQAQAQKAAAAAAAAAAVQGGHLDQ

Columns and labels:
Assay in all cases: two-hybrid; LexA-Ubx variant (pLexA) and B42-partner (pB42) co-transformed into S. cerevisiae EGY48 carrying p8op-LacZ; blue/white colonies on X-gal and liquid β-galactosidase (ONPG) assay after galactose induction at 30°C, reported in Miller units
[1] = molecular target: UbxIb Δ103–216 (Drosophila melanogaster) (UniProt P83949)
[2] = molecular target: UbxIb Pro4 (Drosophila melanogaster) (UniProt P83949)
[3] = molecular target: UbxIb N103 Pro4 (Drosophila melanogaster) (UniProt P83949)

Binder | binding [1] | binding [2] | binding [3]
Armadillo (protein, UniProt P18824 1-843) MSYMPAQNRTMSHNNQYNPPDLPPMVSAKEQTLMWQQNSYLGDSGIHSGAVTQVPSLSGKEDEEMEGDPLMFDLDTGFPQNFTQDQVDDMNQQLSQTRSQRVRAAMFPETLEEGIEIPSTQFDPQQPTAVQRLSEPSQMLKHAVVNLINYQDDAELATRAIPELIKLLNDEDQVVVSQAAMMVHQLSKKEASRHAIMNSPQMVAALVRAISNSNDLESTKAAVGTLHNLSHHRQGLLAIFKSGGIPALVKLLSSPVESVLFYAITTLHNLLLHQDGSKMAVRLAGGLQKMVTLLQRNNVKFLAIVTDCLQILAYGNQESKLIILASGGPNELVRIMRSYDYEKLLWTTSRVLKVLSVCSSNKPAIVDAGGMQALAMHLGNMSPRLVQNCLWTLRNLSDAATKVEGLEALLQSLVQVLGSTDVNVVTCAAGILSNLTCNNQRNKATVCQVGGVDALVRTIINAGDREEITEPAVCALRHLTSRHVDSELAQNAVRLNYGLSVIVKLLHPPSRWPLIKAVIGLIRNLALCPANHAPLREHGAIHHLVRLLMRAFQDTERQRSSIATTGSQQPSAYADGVRMEEIVEGTVGALHILARESHNRALIRQQSVIPIFVRLLFNEIENIQRVAAGVLCELAADKEGAEIIEQEGATGPLTDLLHSRNEGVATYAAAVLFRMSEDKPQDYKKRLSIELTNSLLREDNNIWANADLGMGPDLQDMLGPEEAYEGLYGQGPPSVHSSHGGRAFHQQGYDTLPIDSMQGLEISSPVGGGGAGGAPGNGGAVGGASGGGGNIGAIPPSGAPTSPYSMDMDVGEIDAGALNFDLDAMPTPPNDNNNLAAWYDTDC | binds | binds | binds
Cap-binding protein 1 (protein, UniProt Q7K4N3 1-800) MSRRRAHDTEDEGYDHRRNKRRRVSENQEIEDRLESLILRVGERSTSSVESNLEGLVSVLEADLGTFRLKILRILSDCAVRMPEKCTVYTTLVGLLNAKNYKFGGEFVDHMVKTFKESLKMCRWDAARYSLRFLADLVNCHVISATSLLQLLDTMIDVSNEDTVPQVRRDWFVFAVLSTLPWVGRDLYEKKESALESLLLRIEVYLNKRSKKHHNALRVWSSDAPHPQEEYLDCLWAQIRKLRQDNWAEKHIPRPYLVFDSILCEALQHNLPTIVPPPHHDNFEYPMPWVVYRMFDYTDCPDGPNLPGAHSIERFLIEEHLHHIIETYHHERKDCAAQLLSFPYKHKIPLEYCIVEVVFAELFHMPTPRYLDICYGSILIELCKLQPATLPQVLAQATEILFMRIDSMNTSCFDRFVNWFSYHLSNFKFTWSWDEWDSCLLLDGEHPRPKFIQEVLQKCLRLSYHQRITEMMPTTYAKLIPLTPVPNYKYANEEAANLPGTTVAHQLVVAIRQKCTPEEVVNILKDIPNSGYSGEEMSDGSFNALKIDVFVQTLLNLGSKSFSHSFAAISKFHSVFRALAETEEAQICILHNIFELWSSHQQMMVVLIDKLLKLQIVDCSAVATWIFSKEMTGEFTKLYLWEILHLTIKKMNKHVIKLNTELSEAKEKLAKADSSSSDSEDDSSHKRKKPITHADKPSEEVVERMEEKLEAANVNQKRLFLIVFQRFIMILSEHLLRSDTDGRDPDTDWYRWTIGRLQQVFLMHHEQVQKYSSTLETLLFTSDLDTHILEVFQQFVALRA | binds | binds | binds

Results, then the binder that gave them:

binding [1] | binding [2] | binding [3] | Binder
 | binds |  | single α-α superhelix domain from Arm (amino acids 155–273) (domain or fragment, UniProt P18824 155-273) ELATRAIPELIKLLNDEDQVVVSQAAMMVHQLSKKEASRHAIMNSPQMVAALVRAISNSNDLESTKAAVGTLHNLSHHRQGLLAIFKSGGIPALVKLLSSPVESVLFYAITTLHNLLLH
 | binds |  | Protease p44.5 subunit (protein, UniProt Q7KLV9 1-422) MAGATLFERAQALSSVNREEQDSSLLNKLVRDQEGAENDEERIRIKEQGILQQGELYKQEGKAKELADLIKVTRPFLSSISKAKAAKLVRSLVDMFLDMDAGTGIEVQLCKDCIEWAKQEKRTFLRQSLEARLIALYFDTALYTEALALGAQLLRELKKLDDKNLLVEVQLLESKTYHALSNLPKARAALTSARTTANAIYCPPKVQGALDLQSGILHAADERDFKTAFSYFYEAFEGFDSVDSVKALTSLKYMLLCKIMLGQSDDVNQLVSGKLAITYSGRDIDAMKSVAEASHKRSLADFQAALKEYKKELAEDVIVQAHLGTLYDTMLEQNLCRIIEPYSRVQVAHVAESIQLPMPQVEKKLSQMILDKKFSGILDQGEGVLIVFEETPVDKTYERVLETIQSMGKVVDTLYQKAKKLS
